Source: the supplement of paper PMC12067093, “Discovery and optimisation of a covalent ligand for TRIM25 and its application to targeted protein ubiquitination” (Chemical Science, 2025)
Some of the results follow.

The chains behind the UniProt entries cited, without tags or fusion partners. Where a name states a change or a piece, a line headed by the entry shows the natural chain unless it says otherwise.
UniProt Q9BVC4, whole entry, looked up: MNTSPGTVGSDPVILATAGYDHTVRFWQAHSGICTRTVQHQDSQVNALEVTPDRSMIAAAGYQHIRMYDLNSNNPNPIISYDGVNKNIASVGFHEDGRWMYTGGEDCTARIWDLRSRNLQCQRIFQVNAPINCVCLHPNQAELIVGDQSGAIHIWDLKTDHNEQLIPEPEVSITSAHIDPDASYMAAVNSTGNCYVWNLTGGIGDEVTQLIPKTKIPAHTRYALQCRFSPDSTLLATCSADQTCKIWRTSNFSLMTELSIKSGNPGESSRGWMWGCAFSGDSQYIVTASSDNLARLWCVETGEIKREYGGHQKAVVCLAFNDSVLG
UniProt Q9HBH9: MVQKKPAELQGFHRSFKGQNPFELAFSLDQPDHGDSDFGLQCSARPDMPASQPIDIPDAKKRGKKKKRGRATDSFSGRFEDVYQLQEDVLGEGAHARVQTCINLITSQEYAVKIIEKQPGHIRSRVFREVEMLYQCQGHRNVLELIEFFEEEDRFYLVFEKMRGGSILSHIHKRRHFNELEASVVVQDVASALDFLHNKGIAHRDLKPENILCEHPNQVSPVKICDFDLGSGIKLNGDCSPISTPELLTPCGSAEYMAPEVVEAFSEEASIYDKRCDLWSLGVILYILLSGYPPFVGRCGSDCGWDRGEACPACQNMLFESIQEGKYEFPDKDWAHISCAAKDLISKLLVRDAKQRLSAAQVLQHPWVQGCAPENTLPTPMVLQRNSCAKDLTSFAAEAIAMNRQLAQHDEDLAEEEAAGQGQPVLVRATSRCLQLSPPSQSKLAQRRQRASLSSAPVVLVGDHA
UniProt Q8NHP6: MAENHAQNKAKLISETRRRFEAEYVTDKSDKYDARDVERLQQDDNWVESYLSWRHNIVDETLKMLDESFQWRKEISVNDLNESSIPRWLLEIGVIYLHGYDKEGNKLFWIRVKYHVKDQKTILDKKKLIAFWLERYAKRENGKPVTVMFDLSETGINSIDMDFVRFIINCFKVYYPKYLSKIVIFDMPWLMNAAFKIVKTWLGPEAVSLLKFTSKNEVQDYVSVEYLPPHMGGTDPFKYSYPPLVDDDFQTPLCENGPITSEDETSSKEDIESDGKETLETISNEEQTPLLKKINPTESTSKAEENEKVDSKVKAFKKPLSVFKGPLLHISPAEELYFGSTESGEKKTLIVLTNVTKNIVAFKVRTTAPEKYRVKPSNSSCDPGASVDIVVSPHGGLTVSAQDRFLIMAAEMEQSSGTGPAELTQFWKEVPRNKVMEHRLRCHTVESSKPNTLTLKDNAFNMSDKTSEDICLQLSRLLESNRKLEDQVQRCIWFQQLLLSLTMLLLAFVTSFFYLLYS
UniProt Q9UL63, whole entry, looked up: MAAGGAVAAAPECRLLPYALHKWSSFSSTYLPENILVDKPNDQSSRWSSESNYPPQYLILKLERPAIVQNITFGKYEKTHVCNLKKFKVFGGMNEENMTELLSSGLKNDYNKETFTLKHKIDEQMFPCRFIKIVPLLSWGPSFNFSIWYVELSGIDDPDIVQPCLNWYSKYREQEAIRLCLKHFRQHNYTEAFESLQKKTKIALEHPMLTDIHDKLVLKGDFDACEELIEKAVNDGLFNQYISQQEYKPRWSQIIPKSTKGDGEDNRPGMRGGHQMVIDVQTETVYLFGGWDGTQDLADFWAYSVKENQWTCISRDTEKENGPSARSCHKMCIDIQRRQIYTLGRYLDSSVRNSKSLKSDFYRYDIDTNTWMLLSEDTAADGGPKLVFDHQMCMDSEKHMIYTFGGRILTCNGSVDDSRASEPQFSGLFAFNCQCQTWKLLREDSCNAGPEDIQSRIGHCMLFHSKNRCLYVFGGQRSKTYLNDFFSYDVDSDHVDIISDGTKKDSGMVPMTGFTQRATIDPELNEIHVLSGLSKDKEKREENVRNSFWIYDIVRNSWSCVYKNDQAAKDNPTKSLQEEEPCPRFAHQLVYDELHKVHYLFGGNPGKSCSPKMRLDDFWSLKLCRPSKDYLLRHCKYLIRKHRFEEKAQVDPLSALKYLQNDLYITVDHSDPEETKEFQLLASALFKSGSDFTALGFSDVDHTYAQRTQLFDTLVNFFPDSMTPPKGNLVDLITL
UniProt P51948: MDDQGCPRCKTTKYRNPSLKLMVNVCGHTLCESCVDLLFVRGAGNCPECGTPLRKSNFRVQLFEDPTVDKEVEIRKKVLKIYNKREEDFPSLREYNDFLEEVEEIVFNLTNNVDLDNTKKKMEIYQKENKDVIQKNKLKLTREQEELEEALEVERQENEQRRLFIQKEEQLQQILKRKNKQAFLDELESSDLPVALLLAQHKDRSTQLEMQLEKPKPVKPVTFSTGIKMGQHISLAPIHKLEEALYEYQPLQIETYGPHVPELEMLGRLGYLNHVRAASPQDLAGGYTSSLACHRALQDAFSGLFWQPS
UniProt P46013: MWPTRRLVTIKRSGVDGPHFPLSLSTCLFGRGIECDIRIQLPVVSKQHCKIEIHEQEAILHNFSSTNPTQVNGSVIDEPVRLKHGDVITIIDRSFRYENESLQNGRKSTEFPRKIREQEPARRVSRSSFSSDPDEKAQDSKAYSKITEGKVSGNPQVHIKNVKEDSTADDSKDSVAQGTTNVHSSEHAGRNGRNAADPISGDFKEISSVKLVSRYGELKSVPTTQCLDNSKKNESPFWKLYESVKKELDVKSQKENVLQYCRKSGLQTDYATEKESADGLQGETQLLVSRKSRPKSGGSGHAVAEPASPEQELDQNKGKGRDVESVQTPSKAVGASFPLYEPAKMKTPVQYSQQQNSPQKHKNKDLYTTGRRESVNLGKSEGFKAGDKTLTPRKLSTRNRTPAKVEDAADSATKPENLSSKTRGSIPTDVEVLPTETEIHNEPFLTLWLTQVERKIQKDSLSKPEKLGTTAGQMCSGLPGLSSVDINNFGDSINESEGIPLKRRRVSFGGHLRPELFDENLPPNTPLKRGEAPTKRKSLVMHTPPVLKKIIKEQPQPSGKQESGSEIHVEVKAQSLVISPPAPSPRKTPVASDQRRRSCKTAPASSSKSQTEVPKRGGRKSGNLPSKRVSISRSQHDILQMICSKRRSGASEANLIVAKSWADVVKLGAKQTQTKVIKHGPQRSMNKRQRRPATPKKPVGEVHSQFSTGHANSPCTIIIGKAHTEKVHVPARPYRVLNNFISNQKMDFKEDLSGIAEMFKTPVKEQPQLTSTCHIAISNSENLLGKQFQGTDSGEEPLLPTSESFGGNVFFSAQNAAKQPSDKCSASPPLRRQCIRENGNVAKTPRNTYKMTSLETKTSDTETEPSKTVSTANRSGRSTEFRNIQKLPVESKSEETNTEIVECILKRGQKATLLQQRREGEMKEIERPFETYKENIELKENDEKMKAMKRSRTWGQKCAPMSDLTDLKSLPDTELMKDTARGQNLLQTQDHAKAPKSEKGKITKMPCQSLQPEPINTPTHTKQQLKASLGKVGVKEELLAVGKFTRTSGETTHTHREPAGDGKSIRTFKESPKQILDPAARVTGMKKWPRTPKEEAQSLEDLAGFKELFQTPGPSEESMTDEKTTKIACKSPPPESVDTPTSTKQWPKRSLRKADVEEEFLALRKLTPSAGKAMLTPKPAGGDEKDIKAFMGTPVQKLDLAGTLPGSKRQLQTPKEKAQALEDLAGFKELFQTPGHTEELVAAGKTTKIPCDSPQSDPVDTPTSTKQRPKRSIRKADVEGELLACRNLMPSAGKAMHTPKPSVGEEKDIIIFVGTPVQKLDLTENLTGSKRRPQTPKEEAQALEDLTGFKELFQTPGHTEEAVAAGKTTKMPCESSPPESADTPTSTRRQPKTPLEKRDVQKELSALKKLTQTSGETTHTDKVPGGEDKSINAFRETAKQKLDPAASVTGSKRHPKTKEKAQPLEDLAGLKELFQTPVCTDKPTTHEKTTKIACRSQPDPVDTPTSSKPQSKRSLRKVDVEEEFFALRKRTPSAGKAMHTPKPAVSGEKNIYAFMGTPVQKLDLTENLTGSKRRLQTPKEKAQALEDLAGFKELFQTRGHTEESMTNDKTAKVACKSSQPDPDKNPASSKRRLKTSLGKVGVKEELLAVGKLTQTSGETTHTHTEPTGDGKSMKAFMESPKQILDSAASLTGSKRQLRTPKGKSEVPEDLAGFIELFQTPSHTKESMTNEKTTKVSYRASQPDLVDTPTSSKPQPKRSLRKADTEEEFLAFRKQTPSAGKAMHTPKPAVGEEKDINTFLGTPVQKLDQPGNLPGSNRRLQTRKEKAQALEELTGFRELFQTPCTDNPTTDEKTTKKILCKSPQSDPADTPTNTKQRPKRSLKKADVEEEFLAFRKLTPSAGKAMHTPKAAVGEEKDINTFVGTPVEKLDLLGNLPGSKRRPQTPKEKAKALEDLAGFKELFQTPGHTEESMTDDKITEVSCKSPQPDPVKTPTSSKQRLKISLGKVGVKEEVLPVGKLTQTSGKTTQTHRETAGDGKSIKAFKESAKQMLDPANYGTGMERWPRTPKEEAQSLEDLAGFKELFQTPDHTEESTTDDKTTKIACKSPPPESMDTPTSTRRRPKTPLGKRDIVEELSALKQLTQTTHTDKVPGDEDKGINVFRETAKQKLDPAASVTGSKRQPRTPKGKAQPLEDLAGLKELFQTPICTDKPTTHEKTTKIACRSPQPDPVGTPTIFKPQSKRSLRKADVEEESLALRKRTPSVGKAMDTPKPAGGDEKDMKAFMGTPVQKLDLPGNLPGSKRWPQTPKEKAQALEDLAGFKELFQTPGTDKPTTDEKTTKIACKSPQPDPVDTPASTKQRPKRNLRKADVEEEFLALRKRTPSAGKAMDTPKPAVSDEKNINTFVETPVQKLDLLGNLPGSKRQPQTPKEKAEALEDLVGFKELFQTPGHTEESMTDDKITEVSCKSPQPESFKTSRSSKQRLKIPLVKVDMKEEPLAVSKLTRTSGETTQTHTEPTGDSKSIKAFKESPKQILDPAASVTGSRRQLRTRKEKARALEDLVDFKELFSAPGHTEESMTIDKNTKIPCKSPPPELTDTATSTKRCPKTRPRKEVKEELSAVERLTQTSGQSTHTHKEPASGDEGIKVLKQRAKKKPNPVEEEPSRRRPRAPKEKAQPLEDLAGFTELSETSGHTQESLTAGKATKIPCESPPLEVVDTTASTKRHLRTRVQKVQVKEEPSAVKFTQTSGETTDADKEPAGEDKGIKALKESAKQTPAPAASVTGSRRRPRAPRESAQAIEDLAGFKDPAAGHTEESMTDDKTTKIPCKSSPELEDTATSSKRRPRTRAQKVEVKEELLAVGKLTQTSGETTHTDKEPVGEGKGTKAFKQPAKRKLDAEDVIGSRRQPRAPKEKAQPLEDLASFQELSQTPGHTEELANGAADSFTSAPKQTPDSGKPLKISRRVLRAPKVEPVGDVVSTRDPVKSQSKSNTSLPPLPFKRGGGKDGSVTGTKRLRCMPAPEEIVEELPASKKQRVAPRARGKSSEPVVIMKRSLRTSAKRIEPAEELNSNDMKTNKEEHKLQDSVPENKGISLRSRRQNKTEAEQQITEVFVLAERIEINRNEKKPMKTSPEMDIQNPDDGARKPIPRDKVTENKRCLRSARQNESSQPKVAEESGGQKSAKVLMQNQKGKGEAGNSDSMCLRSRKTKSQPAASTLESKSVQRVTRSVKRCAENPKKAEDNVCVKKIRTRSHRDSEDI
UniProt Q13724: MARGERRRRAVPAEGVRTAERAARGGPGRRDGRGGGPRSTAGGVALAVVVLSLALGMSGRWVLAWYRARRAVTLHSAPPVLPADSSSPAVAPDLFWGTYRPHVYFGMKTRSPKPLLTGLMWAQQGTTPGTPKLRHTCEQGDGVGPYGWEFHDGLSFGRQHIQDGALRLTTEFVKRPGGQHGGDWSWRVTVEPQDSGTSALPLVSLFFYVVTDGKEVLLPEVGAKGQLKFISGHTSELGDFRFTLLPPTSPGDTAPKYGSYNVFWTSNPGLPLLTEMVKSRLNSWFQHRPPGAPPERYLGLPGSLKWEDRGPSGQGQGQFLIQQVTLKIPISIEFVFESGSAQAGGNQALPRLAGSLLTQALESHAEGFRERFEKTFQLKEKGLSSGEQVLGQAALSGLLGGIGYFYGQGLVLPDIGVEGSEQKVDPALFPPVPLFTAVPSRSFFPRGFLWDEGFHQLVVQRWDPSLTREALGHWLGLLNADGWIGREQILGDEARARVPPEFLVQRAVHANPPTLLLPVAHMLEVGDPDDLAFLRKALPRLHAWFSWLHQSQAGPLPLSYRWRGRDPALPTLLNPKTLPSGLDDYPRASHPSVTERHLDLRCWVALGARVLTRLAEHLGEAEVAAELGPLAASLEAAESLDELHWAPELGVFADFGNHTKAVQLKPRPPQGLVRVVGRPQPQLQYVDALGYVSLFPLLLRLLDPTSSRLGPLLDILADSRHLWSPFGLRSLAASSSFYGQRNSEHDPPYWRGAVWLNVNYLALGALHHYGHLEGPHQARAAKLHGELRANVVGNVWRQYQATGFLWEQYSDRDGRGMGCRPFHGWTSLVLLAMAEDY

Compound: Cc1cc(ccc1-c1ccccc1)C(=O)N1CCCN(CC1)C(=O)CCl [compound 10]
Experiment: probe-labelled cysteine peptide fold change vs DMSO (competition) (log2 fold change); higher = less target engagement (more negative = stronger competition)
Conditions: THP-1, incubation time: 4 h
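Note: competitive profiling in live THP-1 cells: cysteine peptides tagged with an iodoacetamide desthiobiotin (IA-DTB) probe, intensity after compound treatment relative to DMSO-treated cells.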

Target | probe-labelled cysteine peptide fold change (10 µM) | probe-labelled cysteine peptide fold change (50 µM)
MRPS18A_Q9NVS2_108_ITGLCQEEHR (UniProt Q9NVS2) | -0.187 | -0.0161
MRPL38_Q96DV4_321_KHQETMTPAGLSFFQCR (UniProt Q96DV4) | 0.145 | 0.181
MLST8_Q9BVC4_107_WMYTGGEDCTAR (UniProt Q9BVC4) | -0.129 | -0.295
MKNK2_Q9HBH9_136_EVEMLYQCQGHR (UniProt Q9HBH9) | 0.326 | 0.731
MRPL43_Q8N983_91_VVAEYLNGAVREESIHCK (UniProt Q8N983) | -0.15 | -0.299
MRPL45_Q9BRJ2_80_SIHLACTAGIFDAYVPPEGDAR (UniProt Q9BRJ2) | 0.157 | 0.206
MRPS17_Q9Y2R5_58_TYFAHDALQQCTVGDIVLLR (UniProt Q9Y2R5) | 0.277 | 0.535
MOSPD2_Q8NHP6_471_TSEDICLQLSR (UniProt Q8NHP6) | 0.0382 | -0.112
MKLN1_Q9UL63_411_ILTCNGSVDDSR (UniProt Q9UL63) | -0.0665 | -0.214
MPP2_Q14168_256_CHFDYDPAR (UniProt Q14168) | -0.0441 | 0.141
MRPL50_Q8N5N7_52_KEPILVCPPLR (UniProt Q8N5N7) | -0.313 | 0.0831
MKRN1_Q9UHC7_259_SCIEAHEK (UniProt Q9UHC7) | -0.0884 | -0.311
MOSPD2_Q8NHP6_442_CHTVESSKPNTLTLK (UniProt Q8NHP6) | -0.0978 | -0.149
MLKL_Q8NB16_184_CMQEIPQEQIK (UniProt Q8NB16) | -0.232 | -1.04
MRPL53_Q96EL3_21_VQFCPFEK (UniProt Q96EL3) | 0.0106 | -0.103
MRPS10_P82664_142_CLELEHLTGSTADVYLEYIQR (UniProt P82664) | 0.276 | 0.371
MIS18A_Q9NYP9_85_AQLEEEAAAAEERPLVFLCSGCR (UniProt Q9NYP9) | 0.00435 | -0.0262
MNAT1_P51948_6_MDDQGCPR (UniProt P51948) | -0.131 | -0.166
MRPL44_Q9H9J2_276_QSGGTTALPLYFVGLYCDK (UniProt Q9H9J2) | 0.0161 | -0.0942
MKI67_P46013_35_GIECDIR (UniProt P46013) | 0.396 | 0.101
MRPL36_Q9P0J6_92_WYVYCK (UniProt Q9P0J6) | -0.141 | -0.0111
MIB1_Q86YT6_62_CSGAYDLR (UniProt Q86YT6) | 0.072 | -0.0658
MRPS16_Q9Y3D3_79_HWIGCGAHLSK (UniProt Q9Y3D3) | -0.276 | 0.121
MORC2_Q9Y6X9_499+502_AMEIPTTIQCDLCLK (UniProt Q9Y6X9) | -0.05 | -0.256
MKI67_P46013_2206_ELFQTPICTDKPTTHEK (UniProt P46013) | -0.207 | -0.217
MPDU1_O75352_37_CYDQLFVQWDLLHVPCLK (UniProt O75352) | -0.136 | 0.184
MOGS_Q13724_137_HTCEQGDGVGPYGWEFHDGLSFGR (UniProt Q13724) | -0.0886 | 0.0374

In a second layout: entries from further up
Target,probe-labelled cysteine peptide fold change (10 µM),probe-labelled cysteine peptide fold change (50 µM)
MRPL38_Q96DV4_321_KHQETMTPAGLSFFQCR (UniProt Q96DV4),0.145,0.181
MLST8_Q9BVC4_107_WMYTGGEDCTAR (UniProt Q9BVC4),-0.129,-0.295
MKNK2_Q9HBH9_136_EVEMLYQCQGHR (UniProt Q9HBH9),0.326,0.731
MRPL43_Q8N983_91_VVAEYLNGAVREESIHCK (UniProt Q8N983),-0.15,-0.299
MRPL45_Q9BRJ2_80_SIHLACTAGIFDAYVPPEGDAR (UniProt Q9BRJ2),0.157,0.206
MRPS17_Q9Y2R5_58_TYFAHDALQQCTVGDIVLLR (UniProt Q9Y2R5),0.277,0.535
MOSPD2_Q8NHP6_471_TSEDICLQLSR (UniProt Q8NHP6),0.0382,-0.112
